{"source": "patent US20170275380A1", "about": "(ROCHE DIAGNOSTICS OPERATIONS, published 2017)", "binders": {"B1": {"name": "antibody 7.2.32 (antibody, V domains shown)", "VH": "EVQLQESGGGLVQPKGSLQLSCAASGFTFNTYAMHWVRQAPGKGLEWVARIRTESSDYATDYADSVKDRFIISRDDSQNMLYLQMNNLKSEDTAIYYCVRSSGFDYWGQGTTLTVSS", "VL": "DIQMTQSPSLPVSLGDQASISCRSSQSLVHDNGNTYLHWFLQKPGQSPKLLIYKVSNRFSGVPDRFGGSGSGTDFTLKISGVEAEDLGVYFCSQGTHVPTFGGGTKLEIK", "notes": "Mouse monoclonal antibody, tested from hybridoma supernatant captured by anti-mouse IgG Fc; also called selected antibody directed against HER3"}}, "molecular_target": "T1, human HER3(1242-1267)-Bi-PEG-amide (human, Bi-PEG (biotin-PEG); C-terminal amide)", "T1 construct": "Injected as analyte singly grafted on streptavidin; also called HER3 peptide", "T1 peptide": "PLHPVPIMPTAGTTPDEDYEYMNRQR", "assay": "SPR (BIACORE A100), mAb captured by anti-mouse Fc, peptide grafted on streptavidin as analyte", "note": "No constants are given. Whether binding was seen depends on the method and setting. Some results given as binding are weak or reduced against the parent protein; the word gives no strength."}
{"binder": "B1", "values": [{"measurement": "binding", "result": "binds"}]}
